# Test results reported in article PMC9299836 (eLife, 2022).
# Protein sequences, listed by entry. Tags and fused reporters are not part of them. Residues count along the entry.
# UniProt Q14BI2, 19-872 A548F: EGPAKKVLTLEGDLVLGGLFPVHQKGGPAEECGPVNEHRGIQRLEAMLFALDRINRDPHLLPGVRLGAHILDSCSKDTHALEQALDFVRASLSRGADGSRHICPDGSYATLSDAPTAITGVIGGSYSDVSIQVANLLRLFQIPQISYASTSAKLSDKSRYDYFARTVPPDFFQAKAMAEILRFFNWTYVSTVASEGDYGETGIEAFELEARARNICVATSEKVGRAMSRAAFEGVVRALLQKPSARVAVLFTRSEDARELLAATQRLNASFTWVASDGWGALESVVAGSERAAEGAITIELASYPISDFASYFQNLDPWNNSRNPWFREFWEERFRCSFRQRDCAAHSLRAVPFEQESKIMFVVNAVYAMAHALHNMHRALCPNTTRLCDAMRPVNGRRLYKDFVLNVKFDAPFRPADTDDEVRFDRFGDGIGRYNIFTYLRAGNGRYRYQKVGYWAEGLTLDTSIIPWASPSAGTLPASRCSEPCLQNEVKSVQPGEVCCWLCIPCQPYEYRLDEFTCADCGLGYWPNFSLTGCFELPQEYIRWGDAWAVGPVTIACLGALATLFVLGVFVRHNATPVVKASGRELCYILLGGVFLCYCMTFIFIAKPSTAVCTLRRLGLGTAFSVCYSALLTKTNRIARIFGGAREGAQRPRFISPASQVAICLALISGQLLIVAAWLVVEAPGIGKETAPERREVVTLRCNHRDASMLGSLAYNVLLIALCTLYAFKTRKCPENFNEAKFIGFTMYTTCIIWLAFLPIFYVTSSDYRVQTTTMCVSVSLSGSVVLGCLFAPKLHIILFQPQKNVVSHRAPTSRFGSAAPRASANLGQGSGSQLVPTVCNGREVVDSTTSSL
# The source gives many values for each of these; only a part stands here.
# Target: mGluR2 (Mus musculus, UniProt Q14BI2, A548F)
# Assay: smFRET of azi-CRD: cross-correlation of donor and acceptor intensities (CRD dynamics) and HMM transition density plots;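 note: single detergent-solubilized receptors captured on antibody-coated flow cells via C-terminal FLAG-tag, imaged by smFRET, donor and acceptor intensity traces from three independent biological replicates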
substance,measurement,setting,value
MNI-137,"Cross Correlation, Mean","0μM Glutamate + GPT/Pyruvate + 5μM MNI-137, Time 0 s",-0.2459
same,"Cross Correlation, Mean","0μM Glutamate + GPT/Pyruvate + 5μM MNI-137, Time 0 s, N 3",-0.2459
same,"Cross Correlation, Mean","0μM Glutamate + GPT/Pyruvate + 5μM MNI-137, Time 0.05 s",-0.07085
same,"Cross Correlation, Mean","0μM Glutamate + GPT/Pyruvate + 5μM MNI-137, Time 0.05 s, N 3",-0.07085
same,"Cross Correlation, Mean","0μM Glutamate + GPT/Pyruvate + 5μM MNI-137, Time 0.1 s",-0.0397
same,"Cross Correlation, Mean","0μM Glutamate + GPT/Pyruvate + 5μM MNI-137, Time 0.1 s, N 3",-0.0397
same,"Cross Correlation, Mean","0μM Glutamate + GPT/Pyruvate + 5μM MNI-137, Time 0.15 s",-0.03694
same,"Cross Correlation, Mean","0μM Glutamate + GPT/Pyruvate + 5μM MNI-137, Time 0.15 s, N 3",-0.03694
same,"Cross Correlation, Mean","0μM Glutamate + GPT/Pyruvate + 5μM MNI-137, Time 0.2 s, N 3",-0.028
same,"Cross Correlation, Mean","0μM Glutamate + GPT/Pyruvate + 5μM MNI-137, Time 0.25 s, N 3",-0.03232
same,"Cross Correlation, Mean","0μM Glutamate + GPT/Pyruvate + 5μM MNI-137, Time 0.3 s, N 3",-0.03245
same,"Cross Correlation, Mean","0μM Glutamate + GPT/Pyruvate + 5μM MNI-137, Time 0.35 s, N 3",-0.03285
same,"Cross Correlation, Mean","0μM Glutamate + GPT/Pyruvate + 5μM MNI-137, Time 0.4 s, N 3",-0.02992
same,"Cross Correlation, Mean","0μM Glutamate + GPT/Pyruvate + 5μM MNI-137, Time 0.45 s, N 3",-0.02563
same,"Cross Correlation, Mean","0μM Glutamate + GPT/Pyruvate + 5μM MNI-137, Time 0.5 s, N 3",-0.0232
same,"Cross Correlation, Mean","0μM Glutamate + GPT/Pyruvate + 5μM MNI-137, Time 0.55 s, N 3",-0.0254
same,"Cross Correlation, Mean","0μM Glutamate + GPT/Pyruvate + 5μM MNI-137, Time 0.6 s, N 3",-0.02539
same,"Cross Correlation, Mean","0μM Glutamate + GPT/Pyruvate + 5μM MNI-137, Time 0.65 s, N 3",-0.02363
same,"Cross Correlation, Mean","0μM Glutamate + GPT/Pyruvate + 5μM MNI-137, Time 0.7 s, N 3",-0.02361
same,"Cross Correlation, Mean","0μM Glutamate + GPT/Pyruvate + 5μM MNI-137, Time 0.8 s, N 3",-0.02074
same,"Cross Correlation, Mean","0μM Glutamate + GPT/Pyruvate + 5μM MNI-137, Time 0.85 s, N 3",-0.0233
same,"Cross Correlation, Mean","0μM Glutamate + GPT/Pyruvate + 5μM MNI-137, Time 0.9 s, N 3",-0.02522
same,"Cross Correlation, Mean","0μM Glutamate + GPT/Pyruvate + 5μM MNI-137, Time 0.95 s, N 3",-0.02254
same,"Cross Correlation, Mean","0μM Glutamate + GPT/Pyruvate + 5μM MNI-137, Time 1 s, N 3",-0.02263
same,"Cross Correlation, Mean","0μM Glutamate + GPT/Pyruvate + 5μM MNI-137, Time 1.05 s, N 3",-0.01654
same,"Cross Correlation, Mean","0μM Glutamate + GPT/Pyruvate + 5μM MNI-137, Time 1.1 s, N 3",-0.01694
same,"Cross Correlation, Mean","0μM Glutamate + GPT/Pyruvate + 5μM MNI-137, Time 1.15 s, N 3",-0.0245
same,"Cross Correlation, Mean","0μM Glutamate + GPT/Pyruvate + 5μM MNI-137, Time 1.2 s, N 3",-0.02011
same,"Cross Correlation, Mean","0μM Glutamate + GPT/Pyruvate + 5μM MNI-137, Time 1.25 s, N 3",-0.02479
same,"Cross Correlation, Mean","0μM Glutamate + GPT/Pyruvate + 5μM MNI-137, Time 1.3 s, N 3",-0.01941
same,"Cross Correlation, Mean","0μM Glutamate + GPT/Pyruvate + 5μM MNI-137, Time 1.35 s, N 3",-0.01897
same,"Cross Correlation, Mean","0μM Glutamate + GPT/Pyruvate + 5μM MNI-137, Time 1.4 s, N 3",-0.02381
same,"Cross Correlation, Mean","0μM Glutamate + GPT/Pyruvate + 5μM MNI-137, Time 1.45 s, N 3",-0.01493
same,"Cross Correlation, Mean","0μM Glutamate + GPT/Pyruvate + 5μM MNI-137, Time 1.5 s, N 3",-0.01697
same,"Cross Correlation, Mean","0μM Glutamate + GPT/Pyruvate + 5μM MNI-137, Time 1.6 s, N 3",-0.01709
same,"Cross Correlation, Mean","0μM Glutamate + GPT/Pyruvate + 5μM MNI-137, Time 1.65 s, N 3",-0.01348
same,"Cross Correlation, Mean","0μM Glutamate + GPT/Pyruvate + 5μM MNI-137, Time 1.7 s, N 3",-0.01427
same,"Cross Correlation, Mean","0μM Glutamate + GPT/Pyruvate + 5μM MNI-137, Time 1.75 s, N 3",-0.0161
same,"Cross Correlation, Mean","0μM Glutamate + GPT/Pyruvate + 5μM MNI-137, Time 1.8 s, N 3",-0.01106
same,"Cross Correlation, Mean","0μM Glutamate + GPT/Pyruvate + 5μM MNI-137, Time 1.85 s, N 3",-0.00832
same,"Cross Correlation, Mean","0μM Glutamate + GPT/Pyruvate + 5μM MNI-137, Time 1.9 s, N 3",-0.01466
same,"Cross Correlation, Mean","0μM Glutamate + GPT/Pyruvate + 5μM MNI-137, Time 1.95 s",-0.01527
same,"Cross Correlation, Mean","0μM Glutamate + GPT/Pyruvate + 5μM MNI-137, Time 1.95 s, N 3",-0.01527
same,"Cross Correlation, Mean","0μM Glutamate + GPT/Pyruvate + 5μM MNI-137, Time 2 s",-0.01535
same,"Cross Correlation, Mean","0μM Glutamate + GPT/Pyruvate + 5μM MNI-137, Time 2 s, N 3",-0.01535
same,"Cross Correlation, Mean","0μM Glutamate + GPT/Pyruvate + 5μM MNI-137, Time 2.05 s",-0.01353
same,"Cross Correlation, Mean","0μM Glutamate + GPT/Pyruvate + 5μM MNI-137, Time 2.05 s, N 3",-0.01353
same,"Cross Correlation, Mean","0μM Glutamate + GPT/Pyruvate + 5μM MNI-137, Time 2.1 s",-0.02329
same,"Cross Correlation, Mean","0μM Glutamate + GPT/Pyruvate + 5μM MNI-137, Time 2.1 s, N 3",-0.02329
same,"Cross Correlation, Mean","0μM Glutamate + GPT/Pyruvate + 5μM MNI-137, Time 2.15 s",-0.01414
same,"Cross Correlation, Mean","0μM Glutamate + GPT/Pyruvate + 5μM MNI-137, Time 2.15 s, N 3",-0.01414
same,"Cross Correlation, Mean","0μM Glutamate + GPT/Pyruvate + 5μM MNI-137, Time 2.2 s",-0.01305
same,"Cross Correlation, Mean","0μM Glutamate + GPT/Pyruvate + 5μM MNI-137, Time 2.2 s, N 3",-0.01305
same,"Cross Correlation, Mean","0μM Glutamate + GPT/Pyruvate + 5μM MNI-137, Time 2.25 s",-0.02083
same,"Cross Correlation, Mean","0μM Glutamate + GPT/Pyruvate + 5μM MNI-137, Time 2.25 s, N 3",-0.02083
same,"Cross Correlation, Mean","0μM Glutamate + GPT/Pyruvate + 5μM MNI-137, Time 2.3 s",-0.0234
same,"Cross Correlation, Mean","0μM Glutamate + GPT/Pyruvate + 5μM MNI-137, Time 2.3 s, N 3",-0.0234
same,"Cross Correlation, Mean","0μM Glutamate + GPT/Pyruvate + 5μM MNI-137, Time 2.35 s",-0.01415
same,"Cross Correlation, Mean","0μM Glutamate + GPT/Pyruvate + 5μM MNI-137, Time 2.35 s, N 3",-0.01415
same,"Cross Correlation, Mean","0μM Glutamate + GPT/Pyruvate + 5μM MNI-137, Time 2.4 s",-0.00877
same,"Cross Correlation, Mean","0μM Glutamate + GPT/Pyruvate + 5μM MNI-137, Time 2.4 s, N 3",-0.00877
same,"Cross Correlation, Mean","0μM Glutamate + GPT/Pyruvate + 5μM MNI-137, Time 2.45 s",-0.01529
same,"Cross Correlation, Mean","0μM Glutamate + GPT/Pyruvate + 5μM MNI-137, Time 2.45 s, N 3",-0.01529
same,"Cross Correlation, Mean","0μM Glutamate + GPT/Pyruvate + 5μM MNI-137, Time 2.5 s",-0.01293
same,"Cross Correlation, Mean","0μM Glutamate + GPT/Pyruvate + 5μM MNI-137, Time 2.5 s, N 3",-0.01293
same,"Cross Correlation, Mean","0μM Glutamate + GPT/Pyruvate + 5μM MNI-137, Time 2.55 s",-0.01664
same,"Cross Correlation, Mean","0μM Glutamate + GPT/Pyruvate + 5μM MNI-137, Time 2.55 s, N 3",-0.01664
same,"Cross Correlation, Mean","0μM Glutamate + GPT/Pyruvate + 5μM MNI-137, Time 2.6 s",-0.01359
same,"Cross Correlation, Mean","0μM Glutamate + GPT/Pyruvate + 5μM MNI-137, Time 2.6 s, N 3",-0.01359
same,"Cross Correlation, Mean","0μM Glutamate + GPT/Pyruvate + 5μM MNI-137, Time 2.65 s",-0.01834
same,"Cross Correlation, Mean","0μM Glutamate + GPT/Pyruvate + 5μM MNI-137, Time 2.65 s, N 3",-0.01834
same,"Cross Correlation, Mean","0μM Glutamate + GPT/Pyruvate + 5μM MNI-137, Time 2.7 s",-0.011
same,"Cross Correlation, Mean","0μM Glutamate + GPT/Pyruvate + 5μM MNI-137, Time 2.7 s, N 3",-0.011
same,"Cross Correlation, Mean","0μM Glutamate + GPT/Pyruvate + 5μM MNI-137, Time 2.8 s",-0.0107
same,"Cross Correlation, Mean","0μM Glutamate + GPT/Pyruvate + 5μM MNI-137, Time 2.8 s, N 3",-0.0107
same,"Cross Correlation, Mean","0μM Glutamate + GPT/Pyruvate + 5μM MNI-137, Time 2.85 s",-0.0118
same,"Cross Correlation, Mean","0μM Glutamate + GPT/Pyruvate + 5μM MNI-137, Time 2.85 s, N 3",-0.0118
same,"Cross Correlation, Mean","0μM Glutamate + GPT/Pyruvate + 5μM MNI-137, Time 2.9 s",-0.0114
same,"Cross Correlation, Mean","0μM Glutamate + GPT/Pyruvate + 5μM MNI-137, Time 2.9 s, N 3",-0.0114
same,"Cross Correlation, Mean","0μM Glutamate + GPT/Pyruvate + 5μM MNI-137, Time 2.95 s",-0.01263
same,"Cross Correlation, Mean","0μM Glutamate + GPT/Pyruvate + 5μM MNI-137, Time 2.95 s, N 3",-0.01263
same,"Cross Correlation, Mean","15μM Glutamate + 5μM MNI-137, Time 0 s",-0.3705
same,"Cross Correlation, Mean","15μM Glutamate + 5μM MNI-137, Time 0.05 s",-0.1742
same,"Cross Correlation, Mean","15μM Glutamate + 5μM MNI-137, Time 0.1 s",-0.13
same,"Cross Correlation, Mean","15μM Glutamate + 5μM MNI-137, Time 0.15 s",-0.1053
same,"Cross Correlation, Mean","15μM Glutamate + 5μM MNI-137, Time 2 s",-0.01674
same,"Cross Correlation, Mean","15μM Glutamate + 5μM MNI-137, Time 2.05 s",-0.01757
same,"Cross Correlation, Mean","15μM Glutamate + 5μM MNI-137, Time 2.1 s",-0.01085
same,"Cross Correlation, Mean","15μM Glutamate + 5μM MNI-137, Time 2.15 s",-0.01347
same,"Cross Correlation, Mean","15μM Glutamate + 5μM MNI-137, Time 2.2 s",-0.01154
same,"Cross Correlation, Mean","15μM Glutamate + 5μM MNI-137, Time 2.25 s",-0.01291
same,"Cross Correlation, Mean","15μM Glutamate + 5μM MNI-137, Time 2.3 s",-0.01444
same,"Cross Correlation, Mean","15μM Glutamate + 5μM MNI-137, Time 2.35 s",-0.01299
